According to PubChem BioAssay AID493014 (National Center for Advancing Translational Sciences (NCATS), 2011):
“And” between values parts separate entries of the source, which are not always exact repeats. Equal entries are not always repeated. Among all 340,000 compounds or so, about 170 (0.05%) were called active. Inconclusive results, whose numbers are uncertain, are shown with a selection of clear calls. Calls follow the shape of the dose curve; as a rule, active = well fitted inhibition curve with a large enough effect in the signal ratio, with a control signal flat (not every such curve was filed as active); inconclusive = small, poorly fitted or top-dose-only effect, or effect the other way, or a change in a side signal; inactive = flat fitted curve, though single readings scatter; the % refers to the signal ratio. Potencies beside an inconclusive call are fits to weak or partial responses and may not hold up.
Potency is read from the fitted curve at half-maximal effect.

Assay: qHTS Assay to Find Inhibitors of Chronic Active B-Cell Receptor Signaling;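 as to activity change, negative = inhibition: plate controls were basal doxycycline-induced cells for no effect and cells given 10 µM MG132 for full effect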
Conditions: ABC-DLBCL IkBa-CBG/CBR reporter, luminescence ratio (green luciferase fused to IkBa over red control in TMD8 lymphoma cells), 4 h; activity change, negative = inhibition: at 46.1 µM (top of the series)
Method in brief: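 Compounds up to 46 uM were incubated four hours with TMD8 cells whose green CBG68 luciferase is fused to IkappaBalpha; red CBR luminescence normalised the signal, and concentration-effect curves were fitted to fusion, red and ratio data.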
In the case of `CN(C(=O)c1cc(-c2ccccc2)on1)C1CCCCC1`, the Potency was inconclusive: 17.8 µM [falling, partial curve].
In the case of `Cn1c(N)c(C(C[N+](=O)[O-])c2c(F)cccc2Cl)c(=O)n(C)c1=O` (stereo unspecified), the activity change, negative = inhibition was inconclusive: -20.4%.
With `CCOC(=O)c1ccc2nc(C(F)(F)F)[nH]c(=O)c2c1` the “activity change, negative = inhibition” value was inactive: 3.46%.
For `O=C(Nc1cccc(Cl)c1)N1CCOCC1`, the activity change, negative = inhibition was inconclusive: 1.58%.
For `Cc1cc(Cl)cc(C)c1OCCNCc1ccccc1`, the “activity change, negative = inhibition” value was inactive: -3.73%.
With `C=C(C)CSc1nc(N)c2c(C)c(C)sc2n1` the activity change, negative = inhibition was inconclusive: -5.59%.
For `O=C(NCCc1ccncc1)c1ccc2nc(Cc3cccc(Cl)c3)oc2c1`, the “activity change, negative = inhibition” value was inactive: -0.526%.
In the case of `COc1cccc(-c2noc(-c3ccc(Br)o3)n2)c1`, the “activity change, negative = inhibition” value was inactive: 8.96%.
With `CC1(C)CSC(=NCc2ccccc2)N1C(=O)c1cccc([N+](=O)[O-])c1` the activity change, negative = inhibition was inconclusive: 9.24%.
With `O=S(=O)(c1ccc2c(c1)CCCN2)N1CCCC1` the activity change, negative = inhibition was inconclusive: 7.22%.
With `COc1cc(CNCc2ccc(OC)c3ccccc23)cc(OC)c1OC` the activity change, negative = inhibition was inconclusive: -12.8%.
In the case of `COCc1cc(CN2CCCC2)c(O)c2ncccc12`, the activity change, negative = inhibition was inconclusive: -3.6%.
In the case of `CCO[C@H]1OC(C(=O)NC2CC2)=C[C@@H](c2c[nH]c3ccccc23)[C@@H]1CCCO`, the activity change, negative = inhibition was inconclusive: -10.9%.
In the case of `CC(=O)N/C(=C\c1ccccc1)C(=O)Nc1ccccc1C`, the activity change, negative = inhibition was inconclusive: 4.59%.
With `O=[N+]([O-])c1ccc(S(=O)(=O)NCC(c2cccnc2)N2CCc3ccccc3C2)cc1` (stereo unspecified) the “activity change, negative = inhibition” value was inactive: -13.7%.
In the case of `COC(=O)c1ccc(COc2ccccc2/C=C/C(=O)c2ccc(OCC(=O)O)cc2)cc1`, the Potency was inconclusive: 17.8 µM [falling, partial curve, poor fit].
In the case of `OCCC1CN(Cc2cccn2-c2nccs2)CCN1Cc1ccccc1` (stereo unspecified), the Potency was inconclusive: 14.1 µM [falling, single point].
With `N#CC/C(N)=N/Nc1nc2ccccc2nc1Cc1ccccc1` the activity change, negative = inhibition was inconclusive: 5.67%.
In the case of `O=C(Nc1cc(S(=O)(=O)N2CCCCC2)ccc1O)c1ccccc1NS(=O)(=O)c1ccc(F)cc1`, the activity change, negative = inhibition was inconclusive: 17%.
With `CC1CCCC(NC(=O)NC(=O)CCl)C1C` (stereo unspecified) the activity change, negative = inhibition was inconclusive: -8.42%.
With `CN=C1S/C(=C\c2ccc(OCC(=O)OC)c(OC)c2)C(=O)N1C` the Potency was inconclusive: 35.5 µM [falling, single point].
In the case of `CCOC(=O)N1CCN(S(=O)(=O)c2ccc(C(=O)Nc3sc4c(c3C(N)=O)CCN(CC)C4)cc2)CC1`, the Potency was inconclusive: 22.4 µM [rising, partial curve, poor fit].
With `Cc1cc(C(=O)NC(C)Cc2ccccc2)cc(C)c1[N+](=O)[O-]` (stereo unspecified) the activity change, negative = inhibition was inconclusive: -0.515%.
In the case of `Cn1c(CSCc2ccccc2)nnc1SCC(=O)Nc1nccs1`, the Potency was inconclusive: 1.64 µM [rising, full curve, poor fit].
With `c1ccc(C2C3=C(Nc4ncnn42)c2ccccc2CCC3)cc1` (stereo unspecified) the activity change, negative = inhibition was inconclusive: 0.632%.
For `O=C(CN1C=NS(=O)(=O)c2ccccc21)Nc1ccc(F)cc1`, the Potency was inconclusive: 5.62 µM [falling, partial curve].
For `O=C(NCc1cccs1)c1ccc2c(c1)N(Cc1ccccc1Cl)C(=O)c1ccccc1S2`, the “activity change, negative = inhibition” value was inactive: -0.985%.
For `O=[N+]([O-])c1cccc(/C=N\N=C2c3ccccc3-c3ccccc32)c1O`, the Potency was inconclusive: 0.411 µM [rising, partial curve, poor fit].
For `S=C(NCCN1CCCCC1)Nc1ccc(Br)cc1`, the “activity change, negative = inhibition” value was inactive: 2.83%.
For `O=[N+]([O-])c1ccc(-n2nnnc2CN2CCCCC2)cc1`, the activity change, negative = inhibition was inconclusive: -2.71%.
For `O=C(NCCc1ccccc1)c1cc(=O)[nH]c2ccccc12`, the activity change, negative = inhibition was inconclusive: 8.09%.
With `CCOc1ccc2c(c1)ncn2Cc1ccccc1` the “activity change, negative = inhibition” value was inactive: 0.525%.
For `Cc1cc(C(=O)Nc2cccc3ccccc23)c(C)o1`, the activity change, negative = inhibition was inconclusive: 3.89%.
In the case of `Cc1[nH]n(-c2ccccc2)c(=O)c1/C=C1\C=NN=C1c1ccccc1`, the Potency was inconclusive: 7.94 µM [rising, partial curve, poor fit].
In the case of `CCOC(=O)c1ccc(CN(Cc2ccccc2)S(=O)(=O)c2ccc(C)cc2)cc1`, the Potency was inconclusive: 15.8 µM [rising, single point].
In the case of `CCOC1(c2ccccc2)OC(=O)c2ccccc21` (stereo unspecified), the activity change, negative = inhibition was inconclusive: 1.38%.
With `COc1cc(Br)c(CNc2cc(C)ccc2C)cc1OC` the activity change, negative = inhibition was inconclusive: -9.12%.
In the case of `Cc1cccc(C(=O)Nc2ccc(-c3nc4ccccc4s3)cc2Cl)c1`, the “activity change, negative = inhibition” value was inactive: -0.315%.
For `CCCCNC(=O)C(CC)Sc1nnc(-c2cccc(F)c2)c(-c2cccc(F)c2)n1` (stereo unspecified), the Potency was inconclusive: 11.2 µM [rising, partial curve].
For `CC1=C(c2ccc(F)cc2)[N+](=O)C(C)(C)N1[O-]`, the activity change, negative = inhibition was inconclusive: 25.8%.
With `Cc1cccc(C(=O)N2CCN=C2SCc2ccc([N+](=O)[O-])cc2)c1` the activity change, negative = inhibition was inconclusive: 4.28%.
For `C=CCOc1c(Cl)cc(CNc2nccs2)cc1OC`, the activity change, negative = inhibition was inconclusive: 4.1%.
For `CCCCOC(=O)c1ccc(Nc2ncnc3[nH]ncc23)cc1`, the activity change, negative = inhibition was inconclusive: 28.1%.
For `COC(=O)c1ccccc1Sc1ncnc2onc(C)c12`, the Potency was inconclusive: 22.4 µM [falling, single point].
For `CCn1c(=O)cc(SCC(=O)Nc2ccc3c(c2)OCCO3)c2ccccc21`, the Potency was inconclusive: 17.8 µM [falling, single point].
For `Cc1ccc(NC(=O)/C=C/c2ccc([N+](=O)[O-])s2)cc1`, the Potency was inconclusive: 2.91 µM [falling, partial curve, poor fit].
In the case of `Cc1ccc(S(=O)(=O)CNC(=S)c2cccc(C)c2)cc1`, the Potency was active: 18.4 µM.
In the case of `COc1cccc(NC(=O)C2CCN(S(=O)(=O)c3ccc4c(c3)NC(=O)C(C)S4)CC2)c1` (stereo unspecified), the activity change, negative = inhibition was inconclusive: -5.93%.
In the case of `COC(=O)c1ccc(OCC(=O)c2ccccc2OC)cc1`, the Potency was inconclusive: 20.6 µM [falling, single point].
With `CCN(CC)S(=O)(=O)c1ccc(OC)c(NC(=O)C(C)Oc2ccc3c(C)cc(=O)oc3c2)c1` (stereo unspecified) the “activity change, negative = inhibition” value was inactive: -0.197%.
In the case of `COCCN1C(=O)c2oc3c(C)cc(C)cc3c(=O)c2C1c1cccc(O)c1` (stereo unspecified), the activity change, negative = inhibition was inconclusive: 0.8%.
For `CCc1nnc2n1N=C(c1ccc(-c3cc(Cl)ccc3Cl)o1)CS2`, the Potency was inconclusive: 25.1 µM [falling, single point].
With `c1ccc(-n2ncc3c(NCc4cccnc4)ncnc32)cc1` the activity change, negative = inhibition was inconclusive: 4.58%.
With `Cc1ccc(C)c(OCCCCCn2ccnc2)c1` the “activity change, negative = inhibition” value was inactive: 1.63%.
With `C/C(=N\Nc1nccnc1Cl)c1ccc(O)cc1` the “activity change, negative = inhibition” value was inactive: 1%.
In the case of `Nc1nc(-c2ccc3c(c2)CCC(=O)N3)cs1`, the Potency was inconclusive: 11.2 µM [falling, partial curve, poor fit].
With `O=C(Nc1ccccc1)Nc1ncc([N+](=O)[O-])s1` the activity change, negative = inhibition was inconclusive: 313%.
In the case of `CN(CC(=O)O/N=C(\N)c1ccc([N+](=O)[O-])cc1)S(=O)(=O)c1ccc2ccccc2c1`, the activity change, negative = inhibition was inconclusive: -3.81%.
In the case of `CC(=O)/C(=C/N(C)C)C(=O)Nc1ccc(Cl)cc1Cl`, the Potency was inconclusive: 22.4 µM [falling, partial curve, poor fit].
For `CN1c2ccccc2C(O)=C(C(=S)Nc2ccc(F)c(Cl)c2)S1(=O)=O`, the Potency was inconclusive: 16.4 µM [falling, partial curve].
For `Cc1[nH]c(-c2ccc(F)cc2)cc1C(=O)N1CCN(c2ccc(Cl)cc2)CC1`, the activity change, negative = inhibition was inconclusive: -1.93%.
In the case of `Cn1c(=O)c(C(=O)COc2ccc(C#N)cc2)c(N)n(Cc2ccccc2)c1=O`, the “activity change, negative = inhibition” value was inactive: -7.95%.
For `O=C(CN1CCC(NC(=O)c2ccco2)CC1)Nc1cccc2ccccc12`, the activity change, negative = inhibition was inconclusive: 5.05%.
With `COc1ccc(CNC(=O)CSc2nn3c(=O)c(C(C)(C)C)nnc3s2)cc1OC` the activity change, negative = inhibition was inconclusive: 7.18%.
For `CC(C1CC2CCC1C2)n1c(COc2ccccc2F)nnc1SCC(N)=O` (stereo unspecified), the Potency was inconclusive: 8.91 µM [falling, partial curve, poor fit].
In the case of `O=C(NC(=S)Nc1ccc(CN2CCOCC2)cc1)c1ccc([N+](=O)[O-])cc1Cl`, the “activity change, negative = inhibition” value was inactive: -0.365%.
With `CN(c1ccccc1)S(=O)(=O)c1ccc(NC(=O)c2ccc(-c3ccccc3)cc2)cc1` the “activity change, negative = inhibition” value was inactive: 17.6%.
For `O=c1c2sc(-c3ccccc3)cc2nc2n1CCC2`, the Potency was inconclusive: 20.6 µM [falling, partial curve].
In the case of `O=C(CCSc1ccc(Br)cc1)c1ccc(O)cc1`, the activity change, negative = inhibition was inconclusive: -10.9%.
For `Nc1cc(=O)[nH]c(SCC(=O)Nc2ccc(Cl)c(Cl)c2)n1`, the activity change, negative = inhibition was inconclusive: -2.4%.
For `O=C(CN1CCCC1)Nc1ccc(Br)cc1[N+](=O)[O-]`, the activity change, negative = inhibition was inconclusive: 10.2%.
With `N#Cc1ccc(C2=NC(C(F)(F)F)(C(F)(F)F)c3c(n(Cc4ccco4)c(=O)[nH]c3=O)N2)cc1` the activity change, negative = inhibition was inconclusive: 12.4%.
For `COc1ccc(CC2S/C(=N/N=C/c3ccccc3O)NC2=O)cc1` (stereo unspecified), the Potency was inconclusive: 2.82 µM [falling, full curve].
With `CC1=C(C(=O)Nc2ccccn2)C(c2ccc(N(C)C)cc2)n2ncnc2N1` (stereo unspecified) the activity change, negative = inhibition was inconclusive: 8.75%.
In the case of `O=[N+]([O-])c1ccc(N2CCN(Cc3ccncc3)CC2)cc1`, the “activity change, negative = inhibition” value was inactive: 0.171%.
For `COc1ccc(-c2nc3c4c(ncn3n2)-c2ccccc2CC42CCCC2)cc1`, the “activity change, negative = inhibition” value was inactive: 0.288%.
For `O=C(Nc1ccccc1)Nc1ccccn1`, the activity change, negative = inhibition was inconclusive: -19% and inconclusive: -1.77%.
In the case of `COCCn1c(C)cc(/C=C2/SC(=O)N(C(C)C(=O)OC)C2=O)c1C` (stereo unspecified), the activity change, negative = inhibition was inconclusive: -14%.
With `CC(C)CNc1nc(Oc2ccc(=O)[nH]n2)nc(N2CCOCC2)n1` the Potency was inconclusive: 14.1 µM [falling, partial curve].
For `CC(C)CC1Nc2ncnc(N3CCCCC3)c2N(Cc2ccc(Br)cc2)C1=O` (stereo unspecified), the “activity change, negative = inhibition” value was inactive: -0.211%.
In the case of `CCc1ccc(-c2ccc(C(=O)C(F)(F)F)[nH]2)cc1`, the activity change, negative = inhibition was inconclusive: 15.2%.
